Data source: PubChem BioAssay AID686937 (Drosophila RNAi Screening Center, 2013)
The screen tested about 23,000 reagents; shown is a random part of those that have a named target and a result. 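Reduced-secretion tags in replicate 1 do not always agree with the z-scores; no criterion for assigning the tags was given.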 The numbers tell different reagents against one gene apart. Names joined by + are all predicted targets of the reagent. No sequences are given here. Not stated in the record: the amount of reagent.

Screen: 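Genes whose loss weakens secretory pathway function in fly cells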 (primary screen)
System: Drosophila S2 cells expressing secreted horseradish peroxidase
Knock-down reagent: long dsRNA against Drosophila genes
Duration: about 5.5 days (5 days dsRNA, then 12 h reporter induction)
Challenge: reporter expression induced after 5 days of dsRNA, read 12 h later; inducer not stated
Measured: 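Chemiluminescent measurement of peroxidase in the medium 12 h after reporter induction, following 5 days of dsRNA, given as a z-score per plate; higher means more secretion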
Scale: z-score: higher = more reporter secreted into medium

| gene knocked down | reagent no. | z-score, replicate 1 | z-score, replicate 2 | phenotype, replicate 1 |
| --- | --- | --- | --- | --- |
| BBS8 (Bardet-Biedl syndrome 8) | 1 | 0.15 | 0.38 | – |
| Ubqn (Ubiquilin) | 1 | -0.03 | -0.32 | – |
| CG42834 | 1 | 0.18 | -0.09 | – |
| CG18262 | 1 | 0.37 | 0.18 | – |
| CG15099 | 1 | 0.21 | -0.13 | – |
| Alg2 (ALG2, alpha-1,3/1,6-mannosyltransferase) | 1 | -1.22 | -1.38 | – |
| Odc1 (Ornithine decarboxylase 1) | 1 | 0.27 | 0.35 | – |
| SCAP (SREBP cleavage activating protein) | 1 | 0.09 | 0.2 | – |
| SCAP (SREBP cleavage activating protein) | 2 | -2.7 | -2.33 | reduced secretion |
| Ns4 (Nucleostemin 4) | 1 | 0.34 | 0.26 | – |
| CG5342 | 1 | 0.05 | 0.22 | – |
| Non1 (Novel nucleolar protein 1) | 1 | 0.16 | -0.55 | – |
| SmydA-7 (SET and MYND domain containing, arthropod-specific, member 7) | 1 | 0.09 | 0.22 | – |
| CG15406 | 1 | 0.22 | 0.26 | – |
| Ir60d (Ionotropic receptor 60d) | 1 | 0.27 | 0.08 | – |
| CG34150 | 1 | 0.44 | 0.38 | – |
| DNAlig1 (DNA ligase 1) | 1 | -0.21 | -0.49 | – |
| Spn47C (Serpin 47C) | 1 | 0.25 | 0.32 | – |
| CG8209 | 1 | 0.23 | 0.16 | – |
| Drep2 (DNA fragmentation factor-related protein 2) | 1 | 0.11 | 0.43 | – |
| Mpv17 (Mitochondrial inner membrane protein MPV17) | 1 | 0.25 | 0.33 | – |
| CG9691 | 1 | 0.41 | 0.52 | – |
| CG9117 | 1 | -0.11 | 0.13 | – |
| CG42450 | 1 | 0.07 | 0.41 | – |
| CG42450 | 2 | 0.05 | -0.02 | – |
| mst (misato) | 1 | 0.04 | 0.39 | – |
| Uhg2 + snoRNA:Me18S-G1620 + snoRNA:U14:30Ea | 1 | 0.12 | 0.39 | – |
| Hyccin | 1 | 0.52 | 0.35 | – |
| Tim10 + CG42497 | 1 | 0.35 | 0.28 | – |
| List (Lithium-inducible SLC6 transporter) | 1 | 0.29 | 0.27 | – |
| awd (abnormal wing discs) | 1 | 0.43 | 0.4 | – |
| Acp26Aa (Accessory gland protein 26Aa) | 1 | -0.14 | -0.01 | – |
| Kank | 1 | 0.05 | 0.08 | – |
| Kank | 2 | 0.1 | 0.19 | – |
| CG15547 | 1 | 0.3 | 0.31 | – |
| CG31419 | 1 | 0.14 | 0.23 | – |
| EMC2B + EMC2A | 1 | -0.25 | -0.34 | – |
| wwk (white walker) | 1 | 0.06 | 0.49 | – |
| CG17192 | 1 | 0.23 | -0.07 | – |
| CG44838 | 1 | -2.03 | -0.56 | reduced secretion |
| CG44838 | 2 | 0.32 | 0.16 | – |
| Top3alpha (Topoisomerase 3alpha) | 1 | 0.17 | 0.17 | – |
| l(2)k05911 (lethal (2) k05911) | 1 | 0.73 | 0.66 | – |
| bw (brown) | 1 | 0.43 | – | – |
| bw (brown) | 2 | 0.02 | 0.15 | – |
| px (plexus) | 1 | -0.38 | -0.84 | – |
| CG10936 | 1 | 0.58 | 0.23 | – |
| CG10936 | 2 | -0.14 | -0.38 | – |
| CG10936 | 3 | -0.02 | 0.23 | – |
| NimC3 (Nimrod C3) | 1 | -0.18 | -0.27 | – |
| NimC3 (Nimrod C3) | 2 | 0.82 | 0.56 | – |
| CG34423 + Mthfs | 1 | 0.36 | -0.18 | – |
| CG8272 | 1 | 0.48 | 0.42 | – |
| CG31802 | 1 | 0.32 | 0.27 | – |
| CG3430 | 1 | 0.43 | 0.09 | – |
| fs(1)K10 (female sterile (1) K10) | 1 | 0.28 | -0.12 | – |

Ordered by “z-score, replicate 1” (low to high): some entries from above.
| gene knocked down | reagent no. | z-score, replicate 1 | z-score, replicate 2 | phenotype, replicate 1 |
| --- | --- | --- | --- | --- |
| EMC2B + EMC2A | 1 | -0.25 | -0.34 | – |
| Acp26Aa (Accessory gland protein 26Aa) | 1 | -0.14 | -0.01 | – |
| Kank | 1 | 0.05 | 0.08 | – |
| wwk (white walker) | 1 | 0.06 | 0.49 | – |
| Kank | 2 | 0.1 | 0.19 | – |
| CG31419 | 1 | 0.14 | 0.23 | – |
| CG17192 | 1 | 0.23 | -0.07 | – |
| CG15547 | 1 | 0.3 | 0.31 | – |
| awd (abnormal wing discs) | 1 | 0.43 | 0.4 | – |
